# Assay results reported in patent US8235110B2, “Preconditioning an oilfield reservoir” (Gushor Inc., priority 2006, dated 2012).
# Experiment: Physical model recovery experiment on oil sand core sample flooded with water solution of preconditioning agent
# Details: for Oil amount Recovered: 20 ml H2O saturated with agent, 225 g oil sand sample, recovery at 85° C.
SMILES,Oil amount Recovered [g],Viscosity of recovered oil (measured at 20° C.) [cP],Viscosity of recovered oil (measured at 50° C.) [cP],Viscosity of recovered oil (measured at 80° C.) [cP]
"Oc1ccccc1 [Phenol, phenol]",9.9,64691,2600,351
"CCCC(C)=O [MPK, methyl propyl ketone]",12.4,18951,1461,288
"COC(C)(C)C [MTBE, methyl tertiary-butyl ether]",10.9,50470,2498,401
